The targets with a hit were mostly taken out for another list; the other results follow. This is a noisy data set. Only a part is listed here, and it is no random draw.
What follows are targets tested with COC(=O)/C=C/c1ccccc1 [methyl cinnamate] (assay: log2 ratio of iodoacetamide-alkyne labeling of the cysteine site, DMSO over compound (competition); higher = stronger covalent engagement of the cysteine by the compound, active = 1 or more). Settings: 500 µM; treatment time 1 h; system: HEK293T cell lysate.
Procedure, shortened: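 Electrophile (500 µM) or vehicle was added to HEK293T lysate (2 mg/mL) for 1 h at ambient temperature before iodoacetamide alkyne labelling (1 h) and click coupling to sCIP-TMT reagents. After pooling, overnight trypsin digestion at 37 °C, streptavidin enrichment and acid elution, peptides were measured by Orbitrap Eclipse LC-MS/MS with FAIMS and quantified in FragPipe. Each cysteine's log2 competition ratio compares mean control-channel with mean compound-channel reporter intensity, control over compound. Data came from duplicate channels across three replicates, excluding cysteines quantified in only one replicate.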

The chains behind the UniProt entries cited, without tags or fusion partners. Where a name states a change or a piece, a line headed by the entry shows the natural chain unless it says otherwise.
UniProt P51858: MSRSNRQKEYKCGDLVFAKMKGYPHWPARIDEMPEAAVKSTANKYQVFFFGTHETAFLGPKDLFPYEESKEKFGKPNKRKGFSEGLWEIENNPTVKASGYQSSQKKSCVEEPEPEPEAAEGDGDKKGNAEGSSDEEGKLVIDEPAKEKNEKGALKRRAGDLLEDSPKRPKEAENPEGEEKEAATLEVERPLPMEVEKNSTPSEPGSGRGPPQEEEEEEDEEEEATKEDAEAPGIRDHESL
UniProt P54098: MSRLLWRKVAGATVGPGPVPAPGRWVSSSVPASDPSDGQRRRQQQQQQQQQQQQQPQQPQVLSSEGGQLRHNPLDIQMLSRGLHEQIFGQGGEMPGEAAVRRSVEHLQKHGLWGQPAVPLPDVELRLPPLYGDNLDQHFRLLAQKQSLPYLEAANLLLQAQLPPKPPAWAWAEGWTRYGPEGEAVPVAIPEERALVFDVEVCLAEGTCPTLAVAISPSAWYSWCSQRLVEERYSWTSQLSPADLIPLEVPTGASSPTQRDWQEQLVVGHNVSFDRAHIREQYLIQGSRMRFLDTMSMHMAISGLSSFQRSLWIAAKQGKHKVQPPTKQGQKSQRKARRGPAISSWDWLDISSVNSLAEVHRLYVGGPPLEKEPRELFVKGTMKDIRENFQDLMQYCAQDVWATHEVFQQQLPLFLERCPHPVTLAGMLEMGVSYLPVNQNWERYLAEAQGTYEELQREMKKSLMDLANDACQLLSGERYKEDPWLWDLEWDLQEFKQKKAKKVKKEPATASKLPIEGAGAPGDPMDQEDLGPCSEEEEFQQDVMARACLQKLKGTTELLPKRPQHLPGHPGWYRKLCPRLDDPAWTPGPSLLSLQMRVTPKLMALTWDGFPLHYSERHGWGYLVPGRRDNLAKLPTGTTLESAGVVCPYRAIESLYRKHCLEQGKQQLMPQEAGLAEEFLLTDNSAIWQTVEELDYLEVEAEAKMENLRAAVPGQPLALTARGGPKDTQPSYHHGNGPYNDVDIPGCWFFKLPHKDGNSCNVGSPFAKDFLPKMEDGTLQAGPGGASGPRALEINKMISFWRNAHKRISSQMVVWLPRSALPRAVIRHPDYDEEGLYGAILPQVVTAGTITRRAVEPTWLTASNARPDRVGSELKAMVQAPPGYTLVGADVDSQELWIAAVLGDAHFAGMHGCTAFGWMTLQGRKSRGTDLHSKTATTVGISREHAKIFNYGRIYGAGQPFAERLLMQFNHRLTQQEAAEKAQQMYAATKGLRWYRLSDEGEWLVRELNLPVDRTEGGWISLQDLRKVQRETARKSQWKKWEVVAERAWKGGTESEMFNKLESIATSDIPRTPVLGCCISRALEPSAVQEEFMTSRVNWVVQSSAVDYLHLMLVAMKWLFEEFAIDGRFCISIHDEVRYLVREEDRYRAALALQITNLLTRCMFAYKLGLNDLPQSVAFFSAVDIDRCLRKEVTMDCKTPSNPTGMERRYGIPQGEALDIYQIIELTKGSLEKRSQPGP
UniProt P53384: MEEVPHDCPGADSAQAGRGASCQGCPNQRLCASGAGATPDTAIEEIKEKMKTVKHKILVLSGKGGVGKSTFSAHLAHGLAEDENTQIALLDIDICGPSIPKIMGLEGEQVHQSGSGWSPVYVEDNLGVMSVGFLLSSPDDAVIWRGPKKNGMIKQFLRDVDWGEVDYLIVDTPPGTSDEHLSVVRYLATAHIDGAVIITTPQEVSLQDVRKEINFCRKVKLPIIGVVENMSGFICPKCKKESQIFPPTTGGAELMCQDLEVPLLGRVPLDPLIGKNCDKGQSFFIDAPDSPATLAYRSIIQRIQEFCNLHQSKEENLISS
UniProt P53041: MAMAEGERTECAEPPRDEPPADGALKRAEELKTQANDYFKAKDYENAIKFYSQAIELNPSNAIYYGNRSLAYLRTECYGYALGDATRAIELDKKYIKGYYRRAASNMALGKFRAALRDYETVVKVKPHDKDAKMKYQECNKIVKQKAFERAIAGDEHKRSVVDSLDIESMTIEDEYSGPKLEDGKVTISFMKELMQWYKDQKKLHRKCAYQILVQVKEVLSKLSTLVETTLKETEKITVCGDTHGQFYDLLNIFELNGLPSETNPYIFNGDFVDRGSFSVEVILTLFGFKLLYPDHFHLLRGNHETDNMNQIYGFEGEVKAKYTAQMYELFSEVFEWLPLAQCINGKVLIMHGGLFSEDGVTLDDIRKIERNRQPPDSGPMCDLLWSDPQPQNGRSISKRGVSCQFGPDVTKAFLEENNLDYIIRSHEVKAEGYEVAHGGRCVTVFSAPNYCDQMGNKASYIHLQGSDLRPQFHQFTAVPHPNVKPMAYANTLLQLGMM
UniProt P61619, whole entry: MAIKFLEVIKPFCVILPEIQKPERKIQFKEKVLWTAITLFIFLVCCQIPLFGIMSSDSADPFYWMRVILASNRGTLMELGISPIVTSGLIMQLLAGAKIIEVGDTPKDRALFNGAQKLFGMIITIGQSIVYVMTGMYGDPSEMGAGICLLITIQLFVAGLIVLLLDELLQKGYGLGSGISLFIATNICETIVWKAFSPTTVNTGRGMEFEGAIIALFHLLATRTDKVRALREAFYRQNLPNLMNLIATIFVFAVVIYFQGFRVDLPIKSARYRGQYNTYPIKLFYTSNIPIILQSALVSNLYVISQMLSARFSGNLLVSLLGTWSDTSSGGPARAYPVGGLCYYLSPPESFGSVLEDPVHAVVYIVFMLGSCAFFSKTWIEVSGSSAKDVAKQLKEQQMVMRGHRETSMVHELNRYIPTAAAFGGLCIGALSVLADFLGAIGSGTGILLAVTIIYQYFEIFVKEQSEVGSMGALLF
UniProt P53396: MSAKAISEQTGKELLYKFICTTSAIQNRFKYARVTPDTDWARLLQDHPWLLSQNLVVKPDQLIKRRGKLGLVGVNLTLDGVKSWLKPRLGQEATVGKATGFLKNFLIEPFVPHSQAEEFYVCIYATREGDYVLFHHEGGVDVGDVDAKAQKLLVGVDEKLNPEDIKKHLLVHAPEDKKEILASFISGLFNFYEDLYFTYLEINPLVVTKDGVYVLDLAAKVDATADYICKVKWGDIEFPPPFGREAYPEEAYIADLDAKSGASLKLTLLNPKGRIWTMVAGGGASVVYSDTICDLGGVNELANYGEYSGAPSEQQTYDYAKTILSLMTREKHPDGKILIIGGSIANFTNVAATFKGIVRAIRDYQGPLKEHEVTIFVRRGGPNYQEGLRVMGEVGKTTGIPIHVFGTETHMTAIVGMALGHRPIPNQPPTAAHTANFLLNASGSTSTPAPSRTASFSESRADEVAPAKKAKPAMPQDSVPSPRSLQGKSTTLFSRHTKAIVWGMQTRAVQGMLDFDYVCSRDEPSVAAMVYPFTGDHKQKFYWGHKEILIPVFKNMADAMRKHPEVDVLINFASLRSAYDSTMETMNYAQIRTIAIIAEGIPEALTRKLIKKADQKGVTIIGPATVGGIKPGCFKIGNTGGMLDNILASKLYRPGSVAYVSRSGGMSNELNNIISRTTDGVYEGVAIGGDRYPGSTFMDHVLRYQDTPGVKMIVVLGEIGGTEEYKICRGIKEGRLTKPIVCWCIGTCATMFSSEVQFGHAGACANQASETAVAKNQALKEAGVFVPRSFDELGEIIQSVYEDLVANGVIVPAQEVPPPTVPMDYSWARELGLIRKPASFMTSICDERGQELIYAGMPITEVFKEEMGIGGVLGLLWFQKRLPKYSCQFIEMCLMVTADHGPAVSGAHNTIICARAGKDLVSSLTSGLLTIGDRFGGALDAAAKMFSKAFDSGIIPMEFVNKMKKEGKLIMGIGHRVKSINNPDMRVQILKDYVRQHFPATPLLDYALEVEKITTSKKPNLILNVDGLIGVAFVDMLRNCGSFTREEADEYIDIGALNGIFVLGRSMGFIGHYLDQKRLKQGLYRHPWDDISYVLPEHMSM
UniProt P55196: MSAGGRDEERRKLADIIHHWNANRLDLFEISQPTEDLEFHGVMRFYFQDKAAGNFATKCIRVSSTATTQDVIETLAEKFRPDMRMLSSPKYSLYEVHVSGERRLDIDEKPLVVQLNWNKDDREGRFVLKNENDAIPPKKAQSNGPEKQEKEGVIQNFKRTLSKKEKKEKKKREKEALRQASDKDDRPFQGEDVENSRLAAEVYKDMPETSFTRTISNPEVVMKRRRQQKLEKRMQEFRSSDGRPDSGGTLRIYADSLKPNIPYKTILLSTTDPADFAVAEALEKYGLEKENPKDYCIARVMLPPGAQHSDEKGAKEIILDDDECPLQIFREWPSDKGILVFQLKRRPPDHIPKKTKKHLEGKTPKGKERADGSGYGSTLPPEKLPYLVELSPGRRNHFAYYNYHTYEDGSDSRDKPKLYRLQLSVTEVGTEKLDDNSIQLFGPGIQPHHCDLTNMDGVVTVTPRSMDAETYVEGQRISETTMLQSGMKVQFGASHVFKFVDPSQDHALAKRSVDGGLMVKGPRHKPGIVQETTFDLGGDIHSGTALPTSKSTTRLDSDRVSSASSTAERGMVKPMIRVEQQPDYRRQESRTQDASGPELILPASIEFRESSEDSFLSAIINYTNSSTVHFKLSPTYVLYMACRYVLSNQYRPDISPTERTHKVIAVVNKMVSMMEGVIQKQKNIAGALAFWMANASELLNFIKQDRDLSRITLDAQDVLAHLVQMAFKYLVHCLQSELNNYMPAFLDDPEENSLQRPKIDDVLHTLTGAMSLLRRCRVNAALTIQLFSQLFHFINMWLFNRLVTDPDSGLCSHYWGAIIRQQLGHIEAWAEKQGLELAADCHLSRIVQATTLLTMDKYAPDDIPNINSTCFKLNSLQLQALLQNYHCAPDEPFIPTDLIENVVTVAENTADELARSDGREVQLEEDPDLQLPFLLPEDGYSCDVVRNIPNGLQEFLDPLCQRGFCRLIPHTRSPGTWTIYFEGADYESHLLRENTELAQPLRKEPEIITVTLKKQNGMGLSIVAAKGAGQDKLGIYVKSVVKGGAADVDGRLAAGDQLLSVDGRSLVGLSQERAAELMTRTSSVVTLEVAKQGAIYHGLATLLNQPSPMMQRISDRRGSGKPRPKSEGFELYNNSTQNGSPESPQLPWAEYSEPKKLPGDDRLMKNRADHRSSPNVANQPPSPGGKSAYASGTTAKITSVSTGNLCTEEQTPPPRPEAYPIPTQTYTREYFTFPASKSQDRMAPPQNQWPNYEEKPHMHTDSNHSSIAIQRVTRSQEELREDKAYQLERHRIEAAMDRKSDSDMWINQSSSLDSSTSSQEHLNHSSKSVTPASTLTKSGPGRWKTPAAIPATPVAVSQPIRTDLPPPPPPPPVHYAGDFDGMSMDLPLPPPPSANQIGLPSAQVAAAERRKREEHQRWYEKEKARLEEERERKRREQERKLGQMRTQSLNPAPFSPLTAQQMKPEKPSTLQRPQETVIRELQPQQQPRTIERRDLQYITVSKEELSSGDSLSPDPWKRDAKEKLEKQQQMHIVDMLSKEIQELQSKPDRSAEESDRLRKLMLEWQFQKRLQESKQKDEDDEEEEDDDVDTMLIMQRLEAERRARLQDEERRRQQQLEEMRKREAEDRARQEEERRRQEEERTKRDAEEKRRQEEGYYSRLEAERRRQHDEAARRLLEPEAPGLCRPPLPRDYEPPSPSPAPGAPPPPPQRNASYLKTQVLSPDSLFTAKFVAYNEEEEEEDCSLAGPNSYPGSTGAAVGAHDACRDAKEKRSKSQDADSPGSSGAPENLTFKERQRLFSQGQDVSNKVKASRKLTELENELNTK
UniProt P55209: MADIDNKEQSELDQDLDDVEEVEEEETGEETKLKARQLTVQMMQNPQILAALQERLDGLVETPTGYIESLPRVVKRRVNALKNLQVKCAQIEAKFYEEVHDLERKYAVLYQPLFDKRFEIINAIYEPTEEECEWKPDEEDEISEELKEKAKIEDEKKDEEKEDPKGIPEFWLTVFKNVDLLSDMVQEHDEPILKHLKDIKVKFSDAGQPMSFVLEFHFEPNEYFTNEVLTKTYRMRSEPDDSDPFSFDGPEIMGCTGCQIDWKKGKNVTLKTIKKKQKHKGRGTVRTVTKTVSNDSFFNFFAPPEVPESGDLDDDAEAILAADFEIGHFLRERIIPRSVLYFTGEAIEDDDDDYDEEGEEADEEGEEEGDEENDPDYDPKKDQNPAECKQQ
UniProt P62195, whole entry: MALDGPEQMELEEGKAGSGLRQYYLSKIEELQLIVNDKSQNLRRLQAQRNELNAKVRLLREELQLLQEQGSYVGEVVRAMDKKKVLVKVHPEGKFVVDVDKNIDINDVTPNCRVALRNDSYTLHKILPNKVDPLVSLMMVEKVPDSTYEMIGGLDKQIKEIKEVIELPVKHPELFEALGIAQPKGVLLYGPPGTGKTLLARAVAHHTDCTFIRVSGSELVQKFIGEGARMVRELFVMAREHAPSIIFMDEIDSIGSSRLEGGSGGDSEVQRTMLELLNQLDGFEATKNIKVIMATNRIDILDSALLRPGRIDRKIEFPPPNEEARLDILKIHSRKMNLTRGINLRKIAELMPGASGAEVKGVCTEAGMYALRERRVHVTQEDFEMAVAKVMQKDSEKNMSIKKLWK
UniProt P56277: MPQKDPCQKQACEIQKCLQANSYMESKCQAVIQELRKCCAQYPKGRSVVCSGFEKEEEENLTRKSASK

log2 ratio of iodoacetamide-alkyne labeling, inactive:
AK2 C42 (UniProt P54819) 0.105
HDGF C108 (UniProt P51858) 0.255
CTBP2 C44 (UniProt P56545) 0.408
POLG C647 (UniProt P54098) 0.0622
HADHB C435 (UniProt P55084) 0.126
NUBP1 C8 (UniProt P53384) 0.318
COPB1 C284 (UniProt P53618) 0.142
PPP5C C11 (UniProt P53041) 0.311
UniProt P51812_C229 0.166
HIRA C882 (UniProt P54198) 0.0603
MSH6 C108 (UniProt P52701) -0.0141
UniProt P60953_C157 0.273
ELL C494 (UniProt P55199) 0.125
ALDH18A1 C546 (UniProt P54886) 0.116
EIF6 C110 (UniProt P56537) 0.0389
PPP5C C77 (UniProt P53041) 0.0764
EIF5 C59 (UniProt P55010) 0.138
NEK4 C401 (UniProt P51957) -0.18
UniProt P61619_C13 -0.459
ACLY C20 (UniProt P53396) 0.15
SEC61B C39 (UniProt P60468) 0.641
UniProt P55196_C1742 0.569
HK2 C606 (UniProt P52789) -0.0826
UniProt P61221_C201 0.059
NUBP1 C235 (UniProt P53384) -0.283
NAP1L1 C132 (UniProt P55209) 0.0976
UniProt P60891_C230 0.058
UniProt P55196_C1684 0.0329
MARS C12 (UniProt P56192) 0.08
THOP1 C18 (UniProt P52888) 0.552
UniProt P62195_C209 -0.00145
PMS2 C216 (UniProt P54278) 0.267
UniProt P60891_C226 -0.169
NAP1L1 C258 (UniProt P55209) 0.0297
CMC4 C12 (UniProt P56277) 0.649
POLR2F C76 (UniProt P61218) 0.0278
NUBP1 C31 (UniProt P53384) 0.598

Nine neighbouring entries out of the list so far, quoted:
log2 ratio of iodoacetamide-alkyne labeling, inactive:
CTBP2 C44 (UniProt P56545) 0.408
POLG C647 (UniProt P54098) 0.0622
HADHB C435 (UniProt P55084) 0.126
NUBP1 C8 (UniProt P53384) 0.318
COPB1 C284 (UniProt P53618) 0.142
PPP5C C11 (UniProt P53041) 0.311
UniProt P51812_C229 0.166
HIRA C882 (UniProt P54198) 0.0603
MSH6 C108 (UniProt P52701) -0.0141

— the supplement of paper PMC11006884
